Data as given in PubChem BioAssay AID1259254 (NCATS, 2017)

Test: 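Finding genes that stop cells copying their DNA twice in one cycle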 (primary screen)
System: human HCT116 colorectal cancer cells
Reagent: single siRNA against human genes
Duration: 3 days
Read-out: 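Nuclei stained with Hoechst and imaged; cell-cycle phase assigned by DNA content; G2 share scaled per plate, non-targeting siRNA 0%, GMNN siRNA 100%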
Direction: G2 robust z-score and G2 cells, % of GMNN control: higher = more G2 cells, more excess DNA replication; raw share of cells in G2: higher = larger share of cells with G2 DNA content
Call rule: 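Active siRNAs have a G2 robust z of 5 or more median absolute deviations over the median, which in these data means about 38% or higher of GMNN control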
The deposit covers about 59,000 reagents; below is a random part of them. Of all reagents, about 1,550 (2.6%) are marked active. 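G2 share is only a proxy for re-replication; each gene was hit by three separate siRNAs, and active genes were retested.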 Raw values vary from plate to plate and are shown uncorrected. The numbers tell different reagents against one gene apart. The record does not give: the amount of reagent.

| gene | reagent no. | G2 robust z-score | G2 cells, % of GMNN control | raw share of cells in G2 (%) | outcome |
| --- | --- | --- | --- | --- | --- |
| INTS14 (GeneID 81556) | 1 | 1.99 | 16.9 | 11.5 | inactive |
| INTS14 (GeneID 81556) | 2 | 0.3 | 5.08 | 6.52 | inactive |
| INTS14 (GeneID 81556) | 3 | -1.1 | -4.78 | 1.07 | inactive |
| TMEM230 (GeneID 29058) | 1 | 1.1 | 10.7 | 6.64 | inactive |
| TMEM230 (GeneID 29058) | 2 | -0.33 | 0.644 | 4.1 | inactive |
| TMEM230 (GeneID 29058) | 3 | -0.825 | -2.83 | 3.48 | inactive |
| MROH6 (GeneID 642475) | 1 | 0.695 | 7.85 | 6.39 | inactive |
| MROH6 (GeneID 642475) | 2 | -0.55 | -0.905 | 2.81 | inactive |
| MROH6 (GeneID 642475) | 3 | 6.97 | 52 | 23.7 | active |
| BAHD1 (GeneID 22893) | 1 | -0.663 | -1.7 | 5.69 | inactive |
| BAHD1 (GeneID 22893) | 2 | -1.01 | -4.15 | 2.77 | inactive |
| BAHD1 (GeneID 22893) | 3 | -1.5 | -7.62 | 1.26 | inactive |
| SLC25A47 (GeneID 283600) | 1 | 2.14 | 18 | 10.2 | inactive |
| SLC25A47 (GeneID 283600) | 2 | -0.597 | -1.23 | 2.57 | inactive |
| SLC25A47 (GeneID 283600) | 3 | -0.282 | 0.983 | 3.57 | inactive |
| MYH7 (GeneID 4625) | 1 | 4.12 | 32 | 18.1 | inactive |
| MYH7 (GeneID 4625) | 2 | 0.601 | 7.19 | 8.14 | inactive |
| MYH7 (GeneID 4625) | 3 | -0.896 | -3.34 | 2.09 | inactive |
| SMG7 (GeneID 9887) | 1 | 1.21 | 11.5 | 10.5 | inactive |
| SMG7 (GeneID 9887) | 2 | -0.956 | -3.76 | 2.38 | inactive |
| SMG7 (GeneID 9887) | 3 | -0.384 | 0.267 | 3.5 | inactive |
| DENND4C (GeneID 55667) | 1 | -0.352 | 0.491 | 4.71 | inactive |
| DENND4C (GeneID 55667) | 2 | -0.492 | -0.496 | 3.93 | inactive |
| DENND4C (GeneID 55667) | 3 | 6.78 | 50.6 | 19.3 | active |
| NUP153 (GeneID 9972) | 1 | 1.36 | 12.6 | 9.85 | inactive |
| NUP153 (GeneID 9972) | 2 | -0.00421 | 2.94 | 4.2 | inactive |
| NUP153 (GeneID 9972) | 3 | 0.347 | 5.41 | 7.25 | inactive |
| HSPA12B (GeneID 116835) | 1 | 0.501 | 6.49 | 5.32 | inactive |
| HSPA12B (GeneID 116835) | 2 | -0.0797 | 2.41 | 4 | inactive |
| HSPA12B (GeneID 116835) | 3 | -0.0689 | 2.48 | 4.4 | inactive |
| TOMM22 (GeneID 56993) | 1 | -1.56 | -7.99 | 2.93 | inactive |
| TOMM22 (GeneID 56993) | 2 | -0.0774 | 2.42 | 5.34 | inactive |
| TOMM22 (GeneID 56993) | 3 | -0.625 | -1.43 | 3.93 | inactive |
| COX18 (GeneID 285521) | 1 | 3.28 | 26 | 13.1 | inactive |
| COX18 (GeneID 285521) | 2 | -0.455 | -0.237 | 2.95 | inactive |
| COX18 (GeneID 285521) | 3 | 0.0296 | 3.18 | 4.23 | inactive |
| DDAH1 (GeneID 23576) | 1 | 1.28 | 12 | 11.2 | inactive |
| DDAH1 (GeneID 23576) | 2 | -0.763 | -2.4 | 3.35 | inactive |
| DDAH1 (GeneID 23576) | 3 | 0.58 | 7.05 | 6.28 | inactive |
| CENPT (GeneID 80152) | 1 | 3.62 | 28.4 | 10.2 | inactive |
| CENPT (GeneID 80152) | 2 | 0.616 | 7.3 | 7.48 | inactive |
| CENPT (GeneID 80152) | 3 | 0.92 | 9.44 | 8.43 | inactive |
| PRR27 (GeneID 401137) | 1 | 0.922 | 9.45 | 7.25 | inactive |
| PRR27 (GeneID 401137) | 2 | 0.276 | 4.91 | 5.46 | inactive |
| PRR27 (GeneID 401137) | 3 | -0.0526 | 2.6 | 5.87 | inactive |
| SPG7 (GeneID 6687) | 1 | 0.424 | 5.95 | 7.63 | inactive |
| SPG7 (GeneID 6687) | 2 | 0.233 | 4.6 | 6.54 | inactive |
| SPG7 (GeneID 6687) | 3 | -0.313 | 0.768 | 4.2 | inactive |
| PLEKHG7 (GeneID 440107) | 1 | -1 | -4.08 | 2.58 | inactive |
| PLEKHG7 (GeneID 440107) | 2 | -0.387 | 0.245 | 3.37 | inactive |
| PLEKHG7 (GeneID 440107) | 3 | 2.45 | 20.2 | 12.3 | inactive |
| PLEKHG7 (GeneID 440107) | 4 | 0.092 | 3.61 | 5.02 | inactive |
| PLEKHG7 (GeneID 440107) | 5 | -0.904 | -3.39 | 2.13 | inactive |
| PLEKHG7 (GeneID 440107) | 6 | -0.451 | -0.206 | 3.05 | inactive |
| CERS3 (GeneID 204219) | 1 | 3.25 | 25.9 | 13 | inactive |
| CERS3 (GeneID 204219) | 2 | -0.633 | -1.49 | 2.62 | inactive |
| CERS3 (GeneID 204219) | 3 | 1.52 | 13.7 | 7.56 | inactive |
| SLC22A25 (GeneID 387601) | 1 | -0.659 | -1.67 | 3.2 | inactive |
| SLC22A25 (GeneID 387601) | 2 | -0.969 | -3.85 | 1.73 | inactive |
| SLC22A25 (GeneID 387601) | 3 | 0.421 | 5.93 | 7.18 | inactive |
| CRCP (GeneID 27297) | 1 | -0.126 | 2.08 | 6.59 | inactive |
| CRCP (GeneID 27297) | 2 | -1.34 | -6.44 | 2.26 | inactive |
| CRCP (GeneID 27297) | 3 | -1.12 | -4.92 | 1.76 | inactive |
| RAPGEF6 (GeneID 51735) | 1 | -1.45 | -7.22 | 2.68 | inactive |
| RAPGEF6 (GeneID 51735) | 2 | -0.0885 | 2.34 | 5.11 | inactive |
| RAPGEF6 (GeneID 51735) | 3 | -0.904 | -3.4 | 2.5 | inactive |
| OSTCP3 (GeneID 646557) | 1 | -0.344 | 0.551 | 3.52 | inactive |
| OSTCP3 (GeneID 646557) | 2 | -0.766 | -2.42 | 2.01 | inactive |
| OSTCP3 (GeneID 646557) | 3 | -0.74 | -2.24 | 3.42 | inactive |

9 consecutive reagents already listed:
| gene | reagent no. | G2 robust z-score | G2 cells, % of GMNN control | raw share of cells in G2 (%) | outcome |
| --- | --- | --- | --- | --- | --- |
| BAHD1 (GeneID 22893) | 2 | -1.01 | -4.15 | 2.77 | inactive |
| BAHD1 (GeneID 22893) | 3 | -1.5 | -7.62 | 1.26 | inactive |
| SLC25A47 (GeneID 283600) | 1 | 2.14 | 18 | 10.2 | inactive |
| SLC25A47 (GeneID 283600) | 2 | -0.597 | -1.23 | 2.57 | inactive |
| SLC25A47 (GeneID 283600) | 3 | -0.282 | 0.983 | 3.57 | inactive |
| MYH7 (GeneID 4625) | 1 | 4.12 | 32 | 18.1 | inactive |
| MYH7 (GeneID 4625) | 2 | 0.601 | 7.19 | 8.14 | inactive |
| MYH7 (GeneID 4625) | 3 | -0.896 | -3.34 | 2.09 | inactive |
| SMG7 (GeneID 9887) | 1 | 1.21 | 11.5 | 10.5 | inactive |
